{"source": "PubChem BioAssay AID485353", "about": "(National Center for Advancing Translational Sciences (NCATS), 2010)", "note": "Out of some 330,000 compounds screened, about 610 (0.18%) were called active. Inconclusive means that the source gave no clear call. Such entries were picked first, then a sample of the others. Calls come from the whole dose curve. Where the call is inconclusive, the potency comes from a doubtful curve fit. Potency is the fitted concentration of half-maximal effect.", "data": [{"experiment": "qHTS of Yeast-based Assay for SARS-CoV PLP; note: nearly all actives have a fitted effect of over 55% in size; for activity, positive = growth rescue: 0% is about no effect", "conditions": "S. cerevisiae expressing SARS-CoV PLpro; Potency: growth rescue; activity, positive = growth rescue: at 32.9 µM (top of the series)", "values": [{"smiles": "CCOc1ccc(-n2nc3ccc(N)cc3n2)cc1", "activity, positive = growth rescue": "inactive: -10.6%"}, {"smiles": "CCOC(=O)CC(NC(=O)c1ccco1)c1ccc(OC)cc1", "note": "(centres undefined)", "Potency": "inconclusive: 15.8 µM [activator, single point]"}, {"smiles": "COc1ccc(CCn2c(-c3cc([N+](=O)[O-])cc([N+](=O)[O-])c3)nc3nc4ccccc4nc32)cc1OC", "activity, positive = growth rescue": "inactive: 6.13%"}, {"smiles": "CCOc1ccc(NC(=S)N/N=C(\\C)Cc2ccc(OC)cc2)cc1", "Potency": "inconclusive: 5.62 µM [activator, partial curve, poor fit]"}, {"smiles": "COc1ccc(/C=C2/SC(=O)N(CCC(=O)Nc3ccc(S(=O)(=O)Nc4nccs4)cc3)C2=O)cc1", "Potency": "inconclusive: 20 µM [activator, single point]"}, {"smiles": "Cc1cc(C)c(NC(=O)CS(=O)CC(=O)NC2CCCc3ccccc32)c(C)c1", "note": "(centres undefined)", "activity, positive = growth rescue": "inactive: 0.815%"}, {"smiles": "CC(C)Oc1ccc(/C=N/NC(N)=S)cc1", "Potency": "inconclusive: 0.316 µM [activator, full curve, poor fit]"}, {"smiles": "Cc1cc(NC(=O)C(C)N2C(=O)c3ccccc3S2(=O)=O)no1", "note": "(centres undefined)", "Potency": "inconclusive: 3.55 µM [activator, partial curve]"}, {"smiles": "O=C1C2C(C(=O)N1/N=C/c1ccc([N+](=O)[O-])o1)C1C=CC2C12CC2", "note": "(centres undefined)", "Potency": "inconclusive: 2.82 µM [activator, partial curve]"}, {"smiles": "Fc1ccc(-c2c[nH]c(=S)n2Cc2ccccc2)cc1", "activity, positive = growth rescue": "inactive: 18.1%"}, {"smiles": "CC(=O)NS(=O)(=O)c1ccc(NC(=O)/C=C/c2cn(-c3ccccc3)nc2-c2ccccc2)cc1", "activity, positive = growth rescue": "inactive: 17.5%"}, {"smiles": "CN(C[C@H](CC1CCCCC1)N(C[C@H](Cc1ccccc1)N(CCc1ccccc1)N=O)N=O)N=O", "activity, positive = growth rescue": "inactive: -0.0946%"}, {"smiles": "CC(C)C(NCc1c(Cl)cccc1Cl)C(=O)O", "note": "(centres undefined)", "Potency": "inconclusive: 10 µM [activator, partial curve]"}, {"smiles": "CC(=O)Nc1ccc(S(=O)(=O)N2CCN(C(=O)N3CCOCC3)CC2)cc1", "activity, positive = growth rescue": "inactive: 0.995%"}, {"smiles": "Cc1cc(C)c2cccc(NC(=S)NC(=O)c3ccccc3)c2n1", "Potency": "inconclusive: 10 µM [activator, single point]"}, {"smiles": "CCN(CC)C(=O)CSc1n[nH]c(=O)n1CCc1ccccc1", "activity, positive = growth rescue": "inactive: 0.884%"}, {"smiles": "CSCCC(NS(=O)(=O)c1cccs1)C(=O)NCc1ccccc1", "note": "(centres undefined)", "Potency": "inconclusive: 20 µM [activator, single point]"}, {"smiles": "CCN(CC(=O)NCc1cccs1)C(=O)c1cccc(S(=O)(=O)Nc2ccccc2OC)c1", "Potency": "inconclusive: 2.51 µM [activator, single point]"}, {"smiles": "Clc1ccc(-c2nnc3sc(-c4ccc(Br)o4)nn23)c(Cl)c1", "Potency": "inconclusive: 1.58 µM [activator, single point]"}, {"smiles": "CNC(=O)COC(=O)c1ccccc1C(=O)c1ccc(Cl)c([N+](=O)[O-])c1", "activity, positive = growth rescue": "inactive: -0.317%"}, {"smiles": "Cc1ccc(/C=C/C(=O)c2ccccc(=O)c2O)cc1C", "Potency": "inconclusive: 4.47 µM [activator, single point]"}, {"smiles": "COc1cc(NC(=S)NCCC(c2ccccc2)c2ccccc2)c(OC)cc1Cl", "Potency": "inconclusive: 6.31 µM [activator, partial curve]"}, {"smiles": "Cc1c(C(=O)NCc2ccccc2Cl)oc2c1C(=O)CCC2", "Potency": "inconclusive: 3.98 µM [activator, single point]"}, {"smiles": "COc1ccc(OC)c(CNC(=O)C2CCCN(C(=O)N(C)C)C2)c1", "note": "(centres undefined)", "Potency": "inconclusive: 2.82 µM [activator, single point]"}, {"smiles": "COc1cc(C(=O)Nc2ccc3nc4n(c(=O)c3c2)CCCCC4)cc(OC)c1OC", "Potency": "inconclusive: 20 µM [activator, single point]"}, {"smiles": "O=C(COC(=O)CNS(=O)(=O)c1ccc(Br)cc1Cl)NCCc1ccccc1", "Potency": "inconclusive: 0.398 µM [activator, full curve, poor fit]"}, {"smiles": "O=C(O)c1ccc(O)c(N2C(=O)Nc3ccccc3N2O)c1", "Potency": "inconclusive: 2.51 µM [activator, single point]"}, {"smiles": "O=C1CC(c2ccccc2)n2nc(NC(=O)c3cccs3)nc2N1", "note": "(centres undefined)", "Potency": "inconclusive: 3.55 µM [activator, single point]"}, {"smiles": "CCn1c(SCC(=O)Nc2ccccc2C)nc2nc3c(cc2c1=O)COC(C)(C)C3", "activity, positive = growth rescue": "inactive: -0.135%"}, {"smiles": "COCc1c(C#N)c(NCCc2ccccc2)nc(C)c1[N+](=O)[O-]", "Potency": "inconclusive: 2.51 µM [activator, partial curve]"}, {"smiles": "Cc1ccc(NS(=O)(=O)c2ccc(C(=O)NCc3cccnc3)cc2)cc1", "Potency": "inconclusive: 2.24 µM [activator, partial curve]"}, {"smiles": "COc1cc2sc(-c3ccccc3OC)c(-c3ccc(OCCN4CCCCC4)cc3)c2cc1OC", "activity, positive = growth rescue": "inactive: -2.27%"}, {"smiles": "CCOC(=O)N1CCN(C(=O)c2ccc(Cl)c(S(=O)(=O)N3CCCC3)c2)CC1", "Potency": "inconclusive: 3.55 µM [activator, single point]"}, {"smiles": "Cc1c(Cl)cccc1NC(=O)CNc1ccccc1F", "Potency": "inconclusive: 20 µM [activator, single point]"}, {"smiles": "Cc1cc2oc(C(=O)Nc3ccc(S(=O)(=O)Nc4nccs4)cc3)cc(=O)c2cc1Cl", "Potency": "inconclusive: 1 µM [activator, partial curve]"}, {"smiles": "CCOC(=O)[C@H]1[C@H]2COc3cc(OC)ccc3[C@@H]2N2C(=O)CN(CCc3c[nH]c4ccccc34)C(=O)[C@@]12C", "Potency": "inconclusive: 4.47 µM [activator, single point]"}, {"smiles": "O=C(Nc1ccccc1F)Nc1cccc2ccc(O)cc12", "activity, positive = growth rescue": "inactive: 0.224%"}, {"smiles": "Cc1ccc(CNC(=O)/C=C/c2ccc(S(=O)(=O)NCc3ccco3)cc2)cc1", "activity, positive = growth rescue": "inactive: -10.1%"}, {"smiles": "CC(C)(C)NC(=O)c1cc(C(C)(C)C)c(O)c(C(C)(C)C)c1", "activity, positive = growth rescue": "inactive: 18.1%"}, {"smiles": "COc1ccccc1CNC(=O)Cn1nnnc1CN(C)C(C)C", "Potency": "inconclusive: 2.82 µM [activator, full curve]"}, {"smiles": "Nc1nncn1C(=O)CCc1ccccc1", "activity, positive = growth rescue": "inactive: -4.91%"}, {"smiles": "Cc1ccc(N2CC(C(=O)Nc3nnc(SCc4cccnc4)s3)CC2=O)cc1", "note": "(centres undefined)", "Potency": "inconclusive: 7.94 µM [activator, partial curve]"}, {"smiles": "O=C(CCNC(=O)Cn1ccc2ccccc2c1=O)NCCc1ccccc1Cl", "Potency": "inconclusive: 20 µM [activator, single point]"}, {"smiles": "CC(=O)Nc1ccc(NC(=O)C(C)Oc2ccc(Cl)cc2Cl)cc1", "note": "(centres undefined)", "Potency": "inconclusive: 20 µM [activator, single point]"}]}]}
